Our source for the binding signal values is publication PMC7819943, “Rice protein-binding microarrays: a tool to detect cis-acting elements near promoter regions in rice”.

Some of the results follow.

This assay addresses T1, OsSMF1 (Oryza sativa, UniProt Q6ZLB0 1-436).
T1 sequence: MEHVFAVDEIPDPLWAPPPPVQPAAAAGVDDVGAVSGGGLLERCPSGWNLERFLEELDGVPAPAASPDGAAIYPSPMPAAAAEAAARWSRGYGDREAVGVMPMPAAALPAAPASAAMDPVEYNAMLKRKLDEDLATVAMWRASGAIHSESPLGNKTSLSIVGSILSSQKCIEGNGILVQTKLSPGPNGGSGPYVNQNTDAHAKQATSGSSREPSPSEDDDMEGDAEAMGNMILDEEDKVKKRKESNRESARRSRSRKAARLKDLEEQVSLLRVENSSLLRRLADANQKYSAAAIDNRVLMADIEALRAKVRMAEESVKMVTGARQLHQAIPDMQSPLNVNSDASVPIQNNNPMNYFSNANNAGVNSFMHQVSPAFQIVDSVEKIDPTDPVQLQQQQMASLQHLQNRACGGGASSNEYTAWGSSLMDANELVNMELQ
Kind of assay: protein-binding microarray (RPBM); PBS, 2% BSA, 51.3 ng/ul salmon testes DNA, 50 uM zinc acetate, 200 nM TF, 25 C, 1 h; high values mean tight binding. The following applies: protein: recombinant; tags: N-terminal polyhistidine and DsRed monomer fusion (pET32a); chain copies: 2; label: CyDye5-dUTP incorporated in the synthesized complementary strand; 3' TTTTT single-stranded linker to array surface; dsDNA, one strand shown. In outline:
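Ni–NTA purification followed expression in E. coli BL21-CodonPlus of transcription factors fused N-terminally to a polyhistidine tag and DsRed. At 200 nM in PBS with 2% BSA, salmon testes DNA and 50 µM zinc acetate, the protein was incubated for 1 h at 25 °C with a custom Agilent array that had been primer-extended with Cy5-dUTP and blocked with 2% BSA. After washing, the array was read on an Axon 4000B scanner. The binding signal is per-feature fluorescence intensity in arbitrary units.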
Regarding “CTCTCCTCCACGCCCACCTCACCTGCCCCTGCGCCTCCGCCGGAGTCACCTAGTGCAG”, the binding signal is 3920 fluorescence intensity (a.u.).

“CGAGTTTAAATTTTAGGCTTGACACGAGTGCTTGTATTTACGGAGTCACCTAGTGCAG”: the binding signal is 4040 fluorescence intensity (a.u.).

With “AGATGGGCTTGAGAATGTGATGTCTCGTTTAATTGGGCCCCGGAGTCACCTAGTGCAG”, the binding signal was 3310 fluorescence intensity (a.u.).

With “CGACCTCGTCGGCGTCGGCGTCGGCGGCTGGTCAACAACTCGGAGTCACCTAGTGCAG”, the binding signal was 3140 fluorescence intensity (a.u.).

On to “AAGAATTTAAAACACGTGCGCGCGGAAAAGATGAAGGTGGCGGAGTCACCTAGTGCAG”, for which the binding signal is 3320 fluorescence intensity (a.u.).

On to “CGTTCTTCAACGCCATCGCCACCTCATAAGCCTCTCTACTCGGAGTCACCTAGTGCAG”, for which the binding signal was 4850 fluorescence intensity (a.u.).

In the case of “CCGCCGCCGATGCAATCTGACGCGGCGGCGCCGGCCGCCGCGGAGTCACCTAGTGCAG”, the binding signal was 7220 fluorescence intensity (a.u.).

Turning to “GAGATCAGCAGCGAGAACGCGGGGCCGGGGTGTAGACAGTCGGAGTCACCTAGTGCAG”, the binding signal was 3810 fluorescence intensity (a.u.).

In the case of “TCCCATCATGTTCACAACTTGCTCCCTGCTTACCTGGTGACGGAGTCACCTAGTGCAG”, the binding signal is 3150 fluorescence intensity (a.u.).

For the sequence “TTGCCACGTAATCGCTACGTCAATGCCACGTGGGACGGAGCGGAGTCACCTAGTGCAG”, the binding signal is 43800 fluorescence intensity (a.u.).

On to “GTTTTGGCACGATATTTGTGGTTTCTAAAGTTAACTAATACGGAGTCACCTAGTGCAG”, for which the binding signal is 28300 fluorescence intensity (a.u.).

Consider “TTAACGAGCCACGCTTACGTTTCTTGGAGTATTTGCCTTTCGGAGTCACCTAGTGCAG”, for which the binding signal was 3560 fluorescence intensity (a.u.).

Consider “GTTTTCTGTCTCTTACGTGTACCTACCCATCGTTGAAACACGGAGTCACCTAGTGCAG”, for which the binding signal was 9010 fluorescence intensity (a.u.).

“GGTCAGCGCTGGCGTCACCCTCCACTCCCTCTCCTTCCGCCGGAGTCACCTAGTGCAG”: the binding signal was 6540 fluorescence intensity (a.u.).

Consider “TGTCGTCTTCGCGATGTCCTTCTCATCGTCGTCCCCTCCGCGGAGTCACCTAGTGCAG”, for which the binding signal is 3850 fluorescence intensity (a.u.).

Take “CGGTCTCACGGTCGCTGCCACCCCGTCCCCACGACGACACCGGAGTCACCTAGTGCAG”: the binding signal was 5310 fluorescence intensity (a.u.).

As to “GTGGTGGTTAATGAAGCTTAAACATGCCGCCGTGTCGATGCGGAGTCACCTAGTGCAG”, the binding signal was 4940 fluorescence intensity (a.u.).

Consider “TATTTATTTATTGAAATCCTGCTAAATCATCTACTCCCAACGGAGTCACCTAGTGCAG”, for which the binding signal is 4520 fluorescence intensity (a.u.).

As to “CGATCCGTTTTCATCCTAGTCAGCGGTCAGAGCAGATATCCGGAGTCACCTAGTGCAG”, the binding signal is 5660 fluorescence intensity (a.u.).

“ATTTTCTATATATAGTATTTCTATACATCTAAAGTTTATACGGAGTCACCTAGTGCAG”: the binding signal was 3490 fluorescence intensity (a.u.).

With “AGACACGGCAGAGACAACGGCATGGGCGGCTTAGCTTATACGGAGTCACCTAGTGCAG”, the binding signal is 5010 fluorescence intensity (a.u.).

In the case of “GTCTTTCTCCTTCTCCTCCTCCTTCCTCTCGCTCTCTCCTCGGAGTCACCTAGTGCAG”, the binding signal is 19600 fluorescence intensity (a.u.).

In the case of “CTCTTGATGCTGTTGACTCTGTAAACAAAATGCGTAATCACGGAGTCACCTAGTGCAG”, the binding signal is 3170 fluorescence intensity (a.u.).

Turning to “GTGCAGATCCACTGTCTGCTCATTGGGCTTATTCATGGCTCGGAGTCACCTAGTGCAG”, the binding signal is 40700 fluorescence intensity (a.u.).

With “CCAATGCCGTCGCCACCCACATCACCACCCGGCGCACTCACGGAGTCACCTAGTGCAG”, the binding signal was 6440 fluorescence intensity (a.u.).

For the sequence “CCGGAGGGCGTTGACGTCGATGCCGATGTGGTCGTAGGTGCGGAGTCACCTAGTGCAG”, the binding signal was 4620 fluorescence intensity (a.u.).

“AGCCAAAAGGCAGCTGGCCACGTCTAATCTGGTTTCCATCCGGAGTCACCTAGTGCAG”: the binding signal is 4450 fluorescence intensity (a.u.).

For the sequence “GAGGTACCGGCCGTACGCGCCGCGGAGGCGGACGTAGGGCCGGAGTCACCTAGTGCAG”, the binding signal was 31200 fluorescence intensity (a.u.).

For the sequence “GATTAGTTGCTCCTTCTCCATGATCGTTAGTTGTTCGAATCGGAGTCACCTAGTGCAG”, the binding signal was 3400 fluorescence intensity (a.u.).

On to “AGTTCTTGGGCTCCGGCGGCAGCCGGCCGGTGTTGGGCGCCGGAGTCACCTAGTGCAG”, for which the binding signal is 18000 fluorescence intensity (a.u.).

For “TCCTAGGTGAAACAACCACGTCATTTCACGGGTGAATCCACGGAGTCACCTAGTGCAG”, the binding signal was 7800 fluorescence intensity (a.u.).

For the sequence “CAAAGCCCTTCATCTCCTTGTCATCTTGAGTTGCTTGAGCCGGAGTCACCTAGTGCAG”, the binding signal was 16600 fluorescence intensity (a.u.).

As to “CGGCGCGCCTCGATGAGGTGGCGCGGGAGGAGGCCTCGGCCGGAGTCACCTAGTGCAG”, the binding signal was 3910 fluorescence intensity (a.u.).

Turning to “CTTACATCCTTTAAATATGACGTAGATCAGAGATATGACGCGGAGTCACCTAGTGCAG”, the binding signal is 6430 fluorescence intensity (a.u.).

For “CCAACAACGATGAACACACGTACGTAGACCACTCCTTTGGCGGAGTCACCTAGTGCAG”, the binding signal was 3890 fluorescence intensity (a.u.).

“ATCTCATGCTTTGCCCAGTCAGAAACTCAGGATACAAACTCGGAGTCACCTAGTGCAG”: the binding signal is 3310 fluorescence intensity (a.u.).

For the sequence “GGGCGCGTACAAAATCGCAGTCGTGCTCGTCTCATCCCGCCGGAGTCACCTAGTGCAG”, the binding signal was 13300 fluorescence intensity (a.u.).

With “CCCAAAATATATGTGACTGATACGTGGGTCCCATTGACACCGGAGTCACCTAGTGCAG”, the binding signal is 4370 fluorescence intensity (a.u.).

Regarding “CAAAGTGTAGGGAGACTTTACAAGTCATAAATTACTCATACGGAGTCACCTAGTGCAG”, the binding signal is 3220 fluorescence intensity (a.u.).

With “ACCTCCGTGTGGGGCCCACGTGACAGCGACCCACTCGCCCCGGAGTCACCTAGTGCAG”, the binding signal is 3580 fluorescence intensity (a.u.).

As for “TCTAATGTTTGGGGAGGATTGAGGAAATTAATCGGCCAAACGGAGTCACCTAGTGCAG”, the binding signal is 3390 fluorescence intensity (a.u.).

As to “CCATAGTTTACGAAGCCGGAGTACGTGGAGCCAACTCACCCGGAGTCACCTAGTGCAG”, the binding signal was 5040 fluorescence intensity (a.u.).
